In the experiment the target is H3K9me3 peptide (first 17 amino acids from histone H3, trimethylated on lysine 9, followed by two glycines and a biotinylated lysine) (UniProt P68431). Put plainly: pull-down; biotinylated histone H3 peptide on Dynabeads MyOne Streptavidin C1; 500 ug nuclear extract, 150 mM NaCl, 50 mM Tris pH 8, 2% NP40, 0.5 mM DTT, 10 uM ZnCl2, 3 h 4 °C; washes with 350 mM NaCl; western blot; only the target purified. For orientation: A western blot detects proteins with antibodies after separation by electrophoresis.

These are yes or no findings as the source states them, for the method shown. Binding seen in cells or lysates may run through a third protein.

B1: FLYWCH1 in crude nuclear extracts (protein, UniProt Q4VC44 1-716)
chain: MPLPEPSEQEGESVKAGQEPSPKPGTDVIPAAPRKPREFSKLVLLTASDQDEDGVGSKPQEVHCVLSLEMAGPATLASTLQILPVEEQGGVVQPALEMPEQKCSKLDAAAPQSLEFLRTPFGGRLLVLESFLYKQEKAVGDKVYWKCRQHAELGCRGRAITRGLRATVMRGHCHAPDEQGLEARRQREKLPSLALPEGLGEPQGPEGPGGRVEEPLEGVGPWQCPEEPEPTPGLVLSKPALEEEEAPRALSLLSLPPKKRSILGLGQARPLEFLRTCYGGSFLVHESFLYKREKAVGDKVYWTCRDHALHGCRSRAITQGQRVTVMRGHCHQPDMEGLEARRQQEKAVETLQAGQDGPGSQVDTLLRGVDSLLYRRGPGPLTLTRPRPRKRAKVEDQELPTQPEAPDEHQDMDADPGGPEFLKTPLGGSFLVYESFLYRREKAAGEKVYWTCRDQARMGCRSRAITQGRRVTVMRGHCHPPDLGGLEALRQREKRPNTAQRGSPGGPEFLKTPLGGSFLVYESFLYRREKAAGEKVYWTCRDQARMGCRSRAITQGRRVMVMRRHCHPPDLGGLEALRQREHFPNLAQWDSPDPLRPLEFLRTSLGGRFLVHESFLYRKEKAAGEKVYWMCRDQARLGCRSRAITQGHRIMVMRSHCHQPDLAGLEALRQRERLPTTAQQEDPEKIQVQLCFKTCSPESQQIYGDIKDVRLDGESQ
As for B1, the binding result is “no binding”.

(Values after PMC8373943.)
